In article PMC7478753:
Results are given in words; binding and its absence hold for the method and conditions named. A result given as binding can be weak or reduced; the word gives no strength. Tags and fused reporters may be left off the sequences shown. For some of these results: In cells and extracts the contact can be indirect.

T1: GAL4 DNA-BD-NaD14 (DWARF 14, the receptor for strigolactone) (N. attenuata)
T1 sequence: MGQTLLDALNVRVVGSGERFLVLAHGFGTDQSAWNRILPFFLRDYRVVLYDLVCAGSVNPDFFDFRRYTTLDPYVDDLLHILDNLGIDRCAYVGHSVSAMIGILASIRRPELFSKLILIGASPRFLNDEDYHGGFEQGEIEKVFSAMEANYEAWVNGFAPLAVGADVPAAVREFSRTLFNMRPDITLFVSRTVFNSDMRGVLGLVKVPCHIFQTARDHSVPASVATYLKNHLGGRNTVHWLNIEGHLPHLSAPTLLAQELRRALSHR


Assays:
[1] = target: T1, GAL4 DNA-BD-NaD14 (DWARF 14, the receptor for strigolactone) (N. attenuata); experiment: two-hybrid; Matchmaker Gold, Y2H Gold cells; BD-D14 as bait with AD fusions; growth on QDO (SD-Ade/-His/-Leu/-Trp) in the presence of rac-GR24 (5 uM), 30°C, 5-7 days
[2] = target: NaSMXL7-YFP (N. attenuata); experiment: pull-down; SMXL6/7-YFP from N. benthamiana leaf extract held on GFP-Trap-A beads and washed; 1 ug purified D14-GST added with/without 20 uM rac-GR24, 22°C, 1 hour; 50 mM Tris-Cl pH 7.0, 150 mM NaCl, 0.5% Tween 20; wash with 300 mM NaCl; blot with anti-GST; only the binder purified
[3] = target: NaSMXL6-YFP (N. attenuata); experiment: as above

Row | binding [1] | binding [2] | binding [3] | Molecule
1 | binds |  |  | AD-NaMAX2a (MORE AXILLARY GROWTH 2a, F-box protein) (N. attenuata)
2 | binds |  |  | AD-NaSMXL7 (suppressor of max2-like 7) (N. attenuata)
3 |  | binds | binds | GST-D14 (purified recombinant NaD14) (receptor, UniProt A0A314LHI7 1-267) MGQTLLDALNVRVVGSGERFLVLAHGFGTDQSAWNRILPFFLRDYRVVLYDLVCAGSVNPDFFDFRRYTTLDPYVDDLLHILDNLGIDRCAYVGHSVSAMIGILASIRRPELFSKLILIGASPRFLNDEDYHGGFEQGEIEKVFSAMEANYEAWVNGFAPLAVGADVPAAVREFSRTLFNMRPDITLFVSRTVFNSDMRGVLGLVKVPCHIFQTARDHSVPASVATYLKNHLGGRNTVHWLNIEGHLPHLSAPTLLAQELRRALSHR
